From paper PMC7695697
Results are given in words; binding and its absence hold for the method and conditions named. Binding seen in cells or lysates may run through a third protein. Some binding calls cover weakened binding; strength is not graded here.

Protein sequences, listed by entry. Tags and fused reporters are not part of them. Lines headed by an entry give the natural chain unless they say otherwise; changes in a name come on top.
UniProt P62873: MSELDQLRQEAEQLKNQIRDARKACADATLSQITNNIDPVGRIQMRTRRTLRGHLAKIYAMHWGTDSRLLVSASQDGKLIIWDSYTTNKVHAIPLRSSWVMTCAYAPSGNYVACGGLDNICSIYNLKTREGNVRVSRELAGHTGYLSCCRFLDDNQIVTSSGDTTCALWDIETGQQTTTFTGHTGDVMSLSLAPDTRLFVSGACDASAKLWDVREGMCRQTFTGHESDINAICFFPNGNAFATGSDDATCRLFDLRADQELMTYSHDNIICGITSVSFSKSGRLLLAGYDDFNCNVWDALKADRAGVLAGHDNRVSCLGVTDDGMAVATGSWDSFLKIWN
UniProt P63211: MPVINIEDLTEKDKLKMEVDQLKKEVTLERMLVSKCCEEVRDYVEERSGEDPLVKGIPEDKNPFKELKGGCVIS
UniProt Q03113: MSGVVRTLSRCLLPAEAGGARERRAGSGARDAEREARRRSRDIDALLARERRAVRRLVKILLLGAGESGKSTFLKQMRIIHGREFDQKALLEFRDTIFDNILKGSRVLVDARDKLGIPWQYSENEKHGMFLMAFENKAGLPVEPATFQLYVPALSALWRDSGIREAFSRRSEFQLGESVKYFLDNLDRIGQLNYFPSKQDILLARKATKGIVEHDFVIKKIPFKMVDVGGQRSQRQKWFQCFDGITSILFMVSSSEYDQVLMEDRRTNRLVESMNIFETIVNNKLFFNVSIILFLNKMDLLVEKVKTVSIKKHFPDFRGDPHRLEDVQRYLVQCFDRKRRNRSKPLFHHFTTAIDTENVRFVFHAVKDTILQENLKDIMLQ

Biological target: βγ dimer of Gβ1 and GFP10-Gγ1 (human) (UniProt P62873+P63211)
Assay: FRET or BRET; BRET^2 between Gα-RlucII and GFP10-Gγ in living cells co-expressing PAR2 (human sensors with Gβ1 in HEK293 or HCT 116; mouse sensors in CMT-93); Tyrode Hepes buffer pH 7.4, 37 °C; hTrypsin, SLIGKV-NH2 or SLIGRL-NH2 for 1 min lowers the signal (separation of Gα from Gγ)

binding: binds
Substance: Gα12-136-RlucII (from UniProt Q03113 1-381)
